Test results from publication PMC10063618.

Tests used:
[1] = biological target: T1, BD-FREE1^231-601 (Arabidopsis thaliana) (UniProt Q9ASS2); assay: two-hybrid; pGBKT7 (BD-FREE1 231-601) and pGADT7 co-transformed into yeast AH109; selection on SD lacking His, Trp, Leu with 3AT, or His, Trp, Leu and Ade
T1 sequence: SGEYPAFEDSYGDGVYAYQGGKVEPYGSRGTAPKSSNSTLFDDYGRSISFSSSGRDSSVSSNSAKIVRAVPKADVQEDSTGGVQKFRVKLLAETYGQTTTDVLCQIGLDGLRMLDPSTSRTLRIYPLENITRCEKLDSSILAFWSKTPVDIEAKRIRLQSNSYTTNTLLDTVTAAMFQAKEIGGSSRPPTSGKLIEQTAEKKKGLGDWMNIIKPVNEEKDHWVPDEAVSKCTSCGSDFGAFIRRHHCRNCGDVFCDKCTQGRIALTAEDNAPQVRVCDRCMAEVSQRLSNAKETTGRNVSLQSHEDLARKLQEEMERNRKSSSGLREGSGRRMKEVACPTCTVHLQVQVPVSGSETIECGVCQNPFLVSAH

[2] = biological target: T2, FREE1^W438AI441A (yeast two-hybrid of Supplementary Fig. 16c) (Arabidopsis thaliana) (UniProt Q9ASS2); assay: as above
T2 sequence: T1 sequence with W208A, I211A

[3] = biological target: T3, GFP-FREE1 (transgenic Arabidopsis plants) (Arabidopsis thaliana) (UniProt Q9ASS2); assay: co-IP; GFP-Trap magnetic beads, 2-4 h at 4 °C, on extracts of transgenic plants expressing the GFP fusion; endogenous partner found by immunoblot; IP buffer 50 mM Tris-HCl pH 7.4, 150 mM NaCl, 1 mM MgCl2, 20% glycerol, 0.2% NP-40; some experiments after nitrogen starvation for at least 18 h
T3 sequence: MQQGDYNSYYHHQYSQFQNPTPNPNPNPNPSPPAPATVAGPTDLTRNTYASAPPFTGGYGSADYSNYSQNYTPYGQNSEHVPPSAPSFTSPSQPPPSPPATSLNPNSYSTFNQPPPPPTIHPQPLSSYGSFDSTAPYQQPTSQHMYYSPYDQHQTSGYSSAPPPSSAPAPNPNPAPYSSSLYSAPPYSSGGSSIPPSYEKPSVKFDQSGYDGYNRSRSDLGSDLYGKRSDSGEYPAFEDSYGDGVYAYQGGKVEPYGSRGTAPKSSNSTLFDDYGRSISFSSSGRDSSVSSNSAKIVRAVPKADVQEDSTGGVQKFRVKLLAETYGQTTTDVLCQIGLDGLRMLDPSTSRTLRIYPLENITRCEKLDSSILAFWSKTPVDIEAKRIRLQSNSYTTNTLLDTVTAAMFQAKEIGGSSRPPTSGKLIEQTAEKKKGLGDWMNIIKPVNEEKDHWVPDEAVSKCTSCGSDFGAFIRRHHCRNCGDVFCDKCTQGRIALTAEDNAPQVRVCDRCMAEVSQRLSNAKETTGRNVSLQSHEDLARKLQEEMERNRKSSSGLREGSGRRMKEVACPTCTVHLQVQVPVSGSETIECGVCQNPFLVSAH

[4] = biological target: T4, GFP-FREE1^S530A (Arabidopsis thaliana) (UniProt Q9ASS2); assay: as above
T4 sequence: T3 sequence with S530A

[5] = biological target: T5, GFP-FREE1^S530AS533A (Arabidopsis thaliana) (UniProt Q9ASS2); assay: as above
T5 sequence: T3 sequence with S530A, S533A

[6] = biological target: T6, CFP-FREE1 (Arabidopsis thaliana) (UniProt Q9ASS2); assay: FRET or BRET; acceptor photobleaching FRET of CFP and YFP fusions in Arabidopsis protoplasts cultured 24 h, Leica SP8
T6 sequence: T3 sequence

Substance	binding [1]	binding [3]	binding [4]	other results
ATG8 (yeast two-hybrid of Supplementary Fig. 16c, isoform not told) (Arabidopsis thaliana)	binds	–	–	binding [2]: no binding
ATG12 (yeast two-hybrid fusion) (Arabidopsis thaliana)	no binding	–	–	–
ATG5-ATG12 conjugate (endogenous) (complex)	–	binds	no binding	–
ATG8 (endogenous, isoform not told)	–	binds	no binding	binding [5]: no binding
ATG12 (FRET fusion) (Arabidopsis thaliana)	–	–	–	binding [6]: no binding

Residue numbers refer to the chain shown, from its start. Results are given in words; binding and its absence hold for the method and conditions named. For part of these data: Binding calls can cover weak binding; strength is not graded here. For part of these data: Tags and fused reporters may be left off the sequences shown. For part of these data: In cells and extracts the contact can be indirect.
